The whole screen tested about 1,300 compounds, of which about 420 (32%) were called active. Inconclusive means that the source gave no clear call. Such entries were picked first, then a sample of the others. The call rests on the fitted dose curve; in most records, active means well fitted inhibition curve with a large enough effect; inconclusive means small, poorly fitted or top-dose-only effect; inactive means no such curve, though single readings can be large or run the other way. A potency beside an inconclusive call is a rough fit, not a confirmed value.
target: C-terminal-binding protein 1 (Homo sapiens) (UniProt Q13363); experiment: qHTS for Inhibitors of the Phosphatase Activity of Eya2: Carboxyl-terminal binding protein (CtBP) Counterscreen for Cherry-picked Compounds; conditions: purified protein-protein binding, AlphaScreen, 3 h; series mostly up to 46.1 µM; further: nearly all actives have a fitted effect of over 65% in size
Outline: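 AlphaScreen using 25 nM GST-E1A with 25 nM CtBP-6xHIS; compounds at 2.5 nM–46 uM final, 2 h at room temperature, then donor/acceptor beads (20 ug/mL) for 1 h in the dark. Signal normalized to E1A peptide inhibitor (maximum inhibition) and DMSO.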
Potency means the concentration at half of the fitted maximal effect.

| Compound | Potency |
| --- | --- |
| CCC(C)C(CO)NC(=O)/C=C/[C@H]1O[C@@H](n2cnc3c(NC(=O)c4ccccc4)ncnc32)[C@H](O)[C@@H]1O (stereo partly specified) | inactive |
| CCCC(=O)Oc1ccc2c(C)cc(=O)oc2c1 | inconclusive: 16.9 µM [inhibitor, single point] |
| O=C(CCN1C(=O)/C(=C\C=C\c2ccccc2)SC1=S)Nc1ccc(C(=O)O)cc1 | inconclusive: 19 µM [inhibitor, single point] |
| COc1ccc(NC(=O)c2[nH]c(C)c(C(C)=O)c2C)cc1Cl | inactive |
| COc1ccc(/C=C2\CCc3ccccc3C2=O)cc1CN1CCOCC1 | active: 13.5 µM |
| c1ccc2c(c1)nc(Nc1ccc(N3CCCCC3)cc1)c1nncn12 | active: 15.1 µM |
| O=C(O)c1c(C(=O)N2N=C3/C(=C/c4ccccc4)CCCC3C2c2ccccc2)cccc1[N+](=O)[O-] (stereo unspecified) | inactive |
| O=C(Nc1nc(-c2ccco2)c(-c2ccco2)s1)C1CC(=O)N(c2ccc3c(c2)OCCO3)C1 (stereo unspecified) | inconclusive: 16.9 µM [inhibitor, single point] |
| N#C/C(=C\c1c(N2CCCCC2)nc2ccccn2c1=O)S(=O)(=O)c1ccccc1 | inconclusive: 16.9 µM [inhibitor, partial curve] |
| Oc1c(C(c2ccc(Cl)cc2)N2CCCC2)cc(Cl)c2cccnc12 (stereo unspecified) | active: 4.78 µM |
| Nc1nc2c(c(=O)[nH]1)C(c1cccc3ccccc13)C1=C(N2)c2ccccc2C1=O (stereo unspecified) | active: 4.26 µM |
| O=[N+]([O-])c1ccccc1Nc1nc(-c2cccnc2)cs1 | inconclusive: 10.7 µM [inhibitor, partial curve] |
| COc1ccc(N2CCN(C(=O)CCC(=O)N3CC(C)Oc4ccc(C)cc43)CC2)cc1 (stereo unspecified) | inactive |
| O=c1c2ccccc2nnn1CSc1nnc(C2COc3ccccc3O2)n1-c1ccccc1 (stereo unspecified) | inactive |
| OC(c1ccc(Cl)cc1)c1nccc2ccccc12 (stereo unspecified) | inactive |
| COc1ccc(Nc2cc3n(c(=O)n2)CCc2cc(OC)c(OC)cc2-3)c(C)c1 | active: 12 µM |
| CC(Oc1ccc(F)cc1)C(=O)Nc1cc(S(=O)(=O)N2CCCCC2)ccc1N1CCN(C)CC1 (stereo unspecified) | inactive |
| CC(C)c1cccc(-c2ccc3c(c2)S(=O)(=O)c2cccc(C(=O)O)c2C3=O)c1 | inconclusive: 19 µM [inhibitor, single point] |
| Cc1cc(NC(=O)c2cccs2)cc(-c2nc3ncccc3o2)c1O | inactive |
| COc1ccc(Nc2nnc(-c3ccc(O)cc3)c3ccccc23)cc1C(N)=O | inconclusive: 16.9 µM [inhibitor, single point] |
| CCCCn1c2ccc(C)cc2c2nnc(SCCN3CCCCC3)nc21 | inconclusive: 21.3 µM [inhibitor, single point] |
| O=C1C(Nc2cccc(O)c2)=C(N2CCCCC2)C(=O)c2ccccc21 | active: 19 µM |
| O=c1nc(-c2ccccc2)c2cc(Cl)ccc2[nH]1 | active: 13.5 µM |
| Cc1ccccc1N=C1NC(=O)/C(=C/c2cccn2C)S1 | inactive |
| CCN(CC)c1ccc(NC(=O)c2ccc3c(c2)c(C)c(C)n3C)cc1 | active: 10.7 µM |
| CCN(Cc1cccc(S(=O)(=O)O)c1)c1ccc(C(=C2C=CC(=[N+](CC)Cc3cccc(S(=O)(=O)O)c3)C=C2)c2ccccc2S(=O)(=O)[O-])cc1 | active: 12 µM |

12 neighbouring records out of the list so far, for reference:

| Compound | Potency |
| --- | --- |
| COc1ccc(/C=C2\CCc3ccccc3C2=O)cc1CN1CCOCC1 | active: 13.5 µM |
| c1ccc2c(c1)nc(Nc1ccc(N3CCCCC3)cc1)c1nncn12 | active: 15.1 µM |
| O=C(O)c1c(C(=O)N2N=C3/C(=C/c4ccccc4)CCCC3C2c2ccccc2)cccc1[N+](=O)[O-] (stereo unspecified) | inactive |
| O=C(Nc1nc(-c2ccco2)c(-c2ccco2)s1)C1CC(=O)N(c2ccc3c(c2)OCCO3)C1 (stereo unspecified) | inconclusive: 16.9 µM [inhibitor, single point] |
| N#C/C(=C\c1c(N2CCCCC2)nc2ccccn2c1=O)S(=O)(=O)c1ccccc1 | inconclusive: 16.9 µM [inhibitor, partial curve] |
| Oc1c(C(c2ccc(Cl)cc2)N2CCCC2)cc(Cl)c2cccnc12 (stereo unspecified) | active: 4.78 µM |
| Nc1nc2c(c(=O)[nH]1)C(c1cccc3ccccc13)C1=C(N2)c2ccccc2C1=O (stereo unspecified) | active: 4.26 µM |
| O=[N+]([O-])c1ccccc1Nc1nc(-c2cccnc2)cs1 | inconclusive: 10.7 µM [inhibitor, partial curve] |
| COc1ccc(N2CCN(C(=O)CCC(=O)N3CC(C)Oc4ccc(C)cc43)CC2)cc1 (stereo unspecified) | inactive |
| O=c1c2ccccc2nnn1CSc1nnc(C2COc3ccccc3O2)n1-c1ccccc1 (stereo unspecified) | inactive |
| OC(c1ccc(Cl)cc1)c1nccc2ccccc12 (stereo unspecified) | inactive |
| COc1ccc(Nc2cc3n(c(=O)n2)CCc2cc(OC)c(OC)cc2-3)c(C)c1 | active: 12 µM |

(listing goes on)

| Compound | Potency |
| --- | --- |
| COc1cc(NC(=O)c2cccs2)c(OC)cc1NC(=O)Nc1ccc(F)cc1 | inactive |
| COc1cc(C(=O)Nc2scc(-c3ccc(Br)cc3)c2C(=O)O)cc(OC)c1OC | inconclusive: 30.1 µM [inhibitor, single point] |
| CCC(CO)Nc1ccc(-c2n[nH]c(=O)c3ccccc23)cc1[N+](=O)[O-] (stereo unspecified) | inconclusive: 15.1 µM [inhibitor, single point] |
| Cc1ccc(NC(=O)/C=C/c2ccc3c(c2)OCO3)cc1S(=O)(=O)N1CCOCC1 | active: 6.75 µM |
| Nc1ccc2nc3c(=O)[nH]c(=S)[nH]c3nc2c1 | active: 3.79 µM |
| COc1ccc(OCc2nc3ccc(S(=O)(=O)Nc4ccccc4Cl)cc3[nH]2)cc1 | inconclusive: 16.9 µM [inhibitor, single point] |
| CC1CCN(C2=NN3C(=N)/C(=C\c4ccc(OC(=O)c5ccco5)cc4)C(=O)N=C3S2)CC1 | inconclusive: 15.1 µM [inhibitor, single point] |
| Cn1c(-c2ccccc2)cnc1NCc1cc(Cl)ccc1O | inconclusive: 16.9 µM [inhibitor, single point] |
| COc1cc2nc(/C=C/c3ccc(N(C)C)cc3)sc2cc1SC | inconclusive: 15.1 µM [inhibitor, single point] |
| O=C(O)c1ccccc1NC(=O)C1CCN(S(=O)(=O)c2ccc3c(c2)OCCO3)CC1 | inconclusive: 16.9 µM [inhibitor, single point] |
| COc1ccc(C(=O)N2CCOCC2)cc1S(=O)(=O)N1CCCc2ccccc21 | inactive |
| CCc1ccc(N=C2NC(=O)/C(=C/c3cc(OC)c(O)c(OC)c3)S2)cc1 | active: 19 µM |
| COc1ccc(CC(=O)Nc2cccc(Cl)c2C)cc1S(=O)(=O)N1CCOCC1 | inactive |
| CCC(=O)NC(c1ccc(OC)cc1)c1cc(Cl)c2cccnc2c1O (stereo unspecified) | inconclusive: 0.757 µM [inhibitor, full curve] |
| N#C/C(=C\c1ccc(OC(=O)c2ccc(Cl)s2)cc1)c1nc2ccccc2[nH]1 | inactive |
| CC(=O)Oc1cccc2c1C(=O)C1CC=CC(OC(C)=O)C1C2=O (stereo unspecified) | active: 9.53 µM |
| CN(C)c1ccc(NS(=O)(=O)c2ccc(Cl)cc2)cc1 | inconclusive: 16.9 µM [inhibitor, single point] |
| OCCN(CCO)c1nc(-c2ccccc2)nc2c1oc1ccccc12 | inconclusive: 6.75 µM [inhibitor, partial curve] |
| COc1cccc(-c2nc(-c3ccccc3)c(-c3ccccc3)[nH]2)c1OCC(=O)O | inconclusive: 19 µM [inhibitor, single point] |
| Cc1ccc(-c2nc3ncccn3c2Nc2ccc3c(c2)OCO3)o1 | inconclusive: 16.9 µM [inhibitor, single point] |
| Cn1c(-c2cccc([N+](=O)[O-])c2)cnc1NCc1cccc(F)c1 | inconclusive: 15.1 µM [inhibitor, single point] |
| COc1ccccc1/C=N/N1CCN(c2ccc(Cl)cc2)CC1 | inconclusive: 13.5 µM [inhibitor, partial curve] |
| Cn1c(=O)c2cc(S(=O)(=O)NCCC(=O)Nc3ccc(F)cc3F)ccc2n(C)c1=O | inconclusive: 15.1 µM [inhibitor, single point] |
| CN(C)c1ccc(CC(=O)N2CCCC(c3cc(C(=O)Nc4ccc(F)c(Cl)c4)no3)C2)cc1 (stereo unspecified) | inconclusive: 13.5 µM [inhibitor, partial curve] |
| Cc1ccc(C(=O)Oc2cc(C)n(C)c(=O)c2)cc1 | inconclusive: 16.9 µM [inhibitor, single point] |

Reference: PubChem BioAssay AID720541 (National Center for Advancing Translational Sciences (NCATS), 2013)
